Measurements reported in publication doi:10.1101/2020.08.14.246132.
Where a chain is given by its changes, count along the chain named. These are yes or no findings as the source states them, for the method shown. Binding seen in cells or lysates may run through a third protein. Some results given as binding are weak or reduced against the parent protein; the word gives no strength. Sequences can lack the tags named with a protein.

Legend:
[1] = molecular target: T1, NLRP1 K1277E (interface IIIb mutant), full length, FLAG-tagged (human) (UniProt Q9C000); assay: co-IP
T1 sequence: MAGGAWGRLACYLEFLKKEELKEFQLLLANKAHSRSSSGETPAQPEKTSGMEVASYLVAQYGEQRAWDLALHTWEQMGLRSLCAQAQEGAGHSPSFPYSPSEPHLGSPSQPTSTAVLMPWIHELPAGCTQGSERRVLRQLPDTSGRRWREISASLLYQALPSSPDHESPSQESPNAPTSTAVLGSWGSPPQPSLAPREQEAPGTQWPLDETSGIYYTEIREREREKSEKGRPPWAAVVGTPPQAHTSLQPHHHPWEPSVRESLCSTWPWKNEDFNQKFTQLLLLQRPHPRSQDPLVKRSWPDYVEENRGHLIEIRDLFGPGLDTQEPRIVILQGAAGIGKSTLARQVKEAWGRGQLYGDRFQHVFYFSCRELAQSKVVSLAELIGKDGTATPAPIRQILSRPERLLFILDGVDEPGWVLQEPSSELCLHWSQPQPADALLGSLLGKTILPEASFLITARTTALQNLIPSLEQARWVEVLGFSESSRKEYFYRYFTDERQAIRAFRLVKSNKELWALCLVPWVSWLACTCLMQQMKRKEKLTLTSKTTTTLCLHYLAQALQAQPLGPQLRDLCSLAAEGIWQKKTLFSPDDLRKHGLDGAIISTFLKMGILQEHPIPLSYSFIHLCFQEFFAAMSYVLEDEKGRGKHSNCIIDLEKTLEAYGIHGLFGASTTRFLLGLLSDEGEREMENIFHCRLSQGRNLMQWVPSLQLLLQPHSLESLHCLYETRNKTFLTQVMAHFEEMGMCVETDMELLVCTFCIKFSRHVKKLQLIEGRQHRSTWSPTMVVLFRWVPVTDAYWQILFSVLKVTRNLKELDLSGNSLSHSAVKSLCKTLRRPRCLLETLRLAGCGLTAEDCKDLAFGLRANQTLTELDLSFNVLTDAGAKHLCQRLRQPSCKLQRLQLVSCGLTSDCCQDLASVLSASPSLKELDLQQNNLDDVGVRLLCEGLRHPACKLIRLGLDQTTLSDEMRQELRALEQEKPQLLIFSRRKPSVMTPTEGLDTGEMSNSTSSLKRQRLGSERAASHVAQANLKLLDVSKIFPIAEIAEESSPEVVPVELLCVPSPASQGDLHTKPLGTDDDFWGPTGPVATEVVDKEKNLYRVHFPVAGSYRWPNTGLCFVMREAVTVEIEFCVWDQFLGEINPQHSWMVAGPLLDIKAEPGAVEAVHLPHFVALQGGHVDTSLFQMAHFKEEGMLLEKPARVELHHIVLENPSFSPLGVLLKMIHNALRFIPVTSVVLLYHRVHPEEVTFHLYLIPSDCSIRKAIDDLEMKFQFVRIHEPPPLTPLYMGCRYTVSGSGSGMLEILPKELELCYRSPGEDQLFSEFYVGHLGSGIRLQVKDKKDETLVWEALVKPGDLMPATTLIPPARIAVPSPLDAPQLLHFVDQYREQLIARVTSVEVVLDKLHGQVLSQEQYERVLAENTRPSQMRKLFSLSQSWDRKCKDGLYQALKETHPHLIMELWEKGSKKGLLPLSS

[2] = molecular target: T2, NLRP1 E1322R (interface IIIa mutant), full length, FLAG-tagged (human) (UniProt Q9C000); assay: co-IP
T2 sequence: T1 sequence with E1277K, E1322R

- binding [1]: binds weakly
- binding [2]: binds weakly
Substance: DPP9, short isoform, N-terminal His tag (His-TEV-DPP9), wild type, for co-immunoprecipitation (from UniProt Q86TI2-1 1-863) (enzyme)
